These are yes or no findings as the source states them, for the method shown. Some results given as binding are weak or reduced against the parent protein; the word gives no strength.
T1: complex I subunit MTND6 (mouse (endogenous in liver mitochondria)) (UniProt P03925)
T1 sequence: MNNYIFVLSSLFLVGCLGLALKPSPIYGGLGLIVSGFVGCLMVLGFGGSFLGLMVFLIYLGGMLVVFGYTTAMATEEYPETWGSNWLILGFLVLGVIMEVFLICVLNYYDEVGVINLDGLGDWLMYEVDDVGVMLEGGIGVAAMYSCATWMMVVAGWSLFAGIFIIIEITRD

Sequences of proteins named here, by UniProt entry; tags and fusion partners are left off. Residues count along the entry.
UniProt Q9DC69, residues 36-377: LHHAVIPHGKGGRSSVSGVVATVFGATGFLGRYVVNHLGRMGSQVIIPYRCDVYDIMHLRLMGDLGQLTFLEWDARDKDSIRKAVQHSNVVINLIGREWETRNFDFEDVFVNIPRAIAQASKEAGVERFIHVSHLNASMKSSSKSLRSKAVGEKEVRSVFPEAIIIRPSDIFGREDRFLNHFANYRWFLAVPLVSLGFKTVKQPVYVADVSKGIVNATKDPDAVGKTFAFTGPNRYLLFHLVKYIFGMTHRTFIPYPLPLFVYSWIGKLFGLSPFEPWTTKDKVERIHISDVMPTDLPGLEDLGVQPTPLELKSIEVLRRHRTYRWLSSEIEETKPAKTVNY
UniProt Q3UIU2: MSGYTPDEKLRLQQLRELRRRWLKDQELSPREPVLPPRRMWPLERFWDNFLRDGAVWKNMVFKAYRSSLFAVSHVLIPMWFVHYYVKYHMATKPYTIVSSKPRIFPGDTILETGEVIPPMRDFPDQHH
UniProt P03911: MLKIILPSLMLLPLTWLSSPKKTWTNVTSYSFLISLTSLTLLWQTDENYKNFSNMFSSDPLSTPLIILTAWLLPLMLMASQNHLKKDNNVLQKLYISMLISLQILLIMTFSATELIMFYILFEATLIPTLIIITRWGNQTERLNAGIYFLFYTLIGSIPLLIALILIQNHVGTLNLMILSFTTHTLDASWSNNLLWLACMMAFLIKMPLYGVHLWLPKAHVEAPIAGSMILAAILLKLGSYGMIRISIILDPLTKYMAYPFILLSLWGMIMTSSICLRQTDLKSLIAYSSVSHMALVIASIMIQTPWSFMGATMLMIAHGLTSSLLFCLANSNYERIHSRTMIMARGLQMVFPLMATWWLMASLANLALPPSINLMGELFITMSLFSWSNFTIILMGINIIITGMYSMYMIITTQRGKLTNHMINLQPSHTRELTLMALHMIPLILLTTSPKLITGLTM
UniProt Q9CQZ5: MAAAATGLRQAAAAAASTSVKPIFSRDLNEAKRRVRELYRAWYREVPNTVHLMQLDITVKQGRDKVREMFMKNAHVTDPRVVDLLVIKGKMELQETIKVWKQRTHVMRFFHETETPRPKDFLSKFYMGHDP
UniProt Q9D6J5, residues 29-186: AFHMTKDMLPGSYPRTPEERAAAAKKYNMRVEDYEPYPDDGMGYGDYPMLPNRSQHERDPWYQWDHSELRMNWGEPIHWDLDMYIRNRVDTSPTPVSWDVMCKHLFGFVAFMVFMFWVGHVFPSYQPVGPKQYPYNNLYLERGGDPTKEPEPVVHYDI
UniProt Q9DCT2, residues 36-263: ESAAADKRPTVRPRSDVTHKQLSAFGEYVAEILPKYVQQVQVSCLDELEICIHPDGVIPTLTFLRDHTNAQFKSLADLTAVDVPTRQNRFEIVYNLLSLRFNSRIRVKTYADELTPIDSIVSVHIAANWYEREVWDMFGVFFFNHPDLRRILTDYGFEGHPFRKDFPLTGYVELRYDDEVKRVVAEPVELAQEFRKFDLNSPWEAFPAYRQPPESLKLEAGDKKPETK
UniProt Q9DC70, residues 36-224: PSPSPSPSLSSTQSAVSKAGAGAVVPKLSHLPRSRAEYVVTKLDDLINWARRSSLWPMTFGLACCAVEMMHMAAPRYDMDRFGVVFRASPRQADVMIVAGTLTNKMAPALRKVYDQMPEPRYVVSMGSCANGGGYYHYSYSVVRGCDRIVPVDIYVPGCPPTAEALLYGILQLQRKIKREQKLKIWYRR


Tests used:
[1] = biological target: complex I subunit NDUFA9 (mouse (endogenous in liver mitochondria)) (UniProt Q9DC69); test: native gel or EMSA; two-dimensional BN/SDS-PAGE of mouse liver mitochondria (30 μg) exposed to 10 μM PGZ for 30 minutes; western blot with antibodies against complex I subunits; subunits found in the same subcomplex
[2] = biological target: complex I subunit NDUFA9 (mouse (endogenous in liver mitochondria)) (UniProt Q9DC69); test: native gel or EMSA; one-dimensional 5% to 15% BN-PAGE of mouse liver mitochondrial complexes (n-dodecyl β-D-maltoside) after 10 μM PGZ in vitro; western blot with antibodies against complex I subunits; subunits found in the same band
[3] = biological target: T1, complex I subunit MTND6 (mouse (endogenous in liver mitochondria)); test: as above
[4] = biological target: T1, complex I subunit MTND6 (mouse (endogenous in liver mitochondria)); test: native gel or EMSA; two-dimensional BN/SDS-PAGE of mouse liver mitochondria (30 μg) exposed to 10 μM PGZ for 30 minutes; western blot with antibodies against complex I subunits; subunits found in the same subcomplex
[5] = biological target: complex I subunit NDUFB6 (mouse (endogenous in liver mitochondria)) (UniProt Q3UIU2); test: native gel or EMSA; one-dimensional 5% to 15% BN-PAGE of mouse liver mitochondrial complexes (n-dodecyl β-D-maltoside) after 10 μM PGZ in vitro; western blot with antibodies against complex I subunits; subunits found in the same band
[6] = biological target: complex I subunit NDUFB6 (mouse (endogenous in liver mitochondria)) (UniProt Q3UIU2); test: native gel or EMSA; two-dimensional BN/SDS-PAGE of mouse liver mitochondria (30 μg) exposed to 10 μM PGZ for 30 minutes; western blot with antibodies against complex I subunits; subunits found in the same subcomplex
[7] = biological target: complex I subunit MTND4 (mouse (endogenous in liver mitochondria)) (UniProt P03911); test: native gel or EMSA; one-dimensional 5% to 15% BN-PAGE of mouse liver mitochondrial complexes (n-dodecyl β-D-maltoside) after 10 μM PGZ in vitro; western blot with antibodies against complex I subunits; subunits found in the same band
[8] = biological target: complex I subunit MTND4 (mouse (endogenous in liver mitochondria)) (UniProt P03911); test: native gel or EMSA; two-dimensional BN/SDS-PAGE of mouse liver mitochondria (30 μg) exposed to 10 μM PGZ for 30 minutes; western blot with antibodies against complex I subunits; subunits found in the same subcomplex

Row | Molecule | binding [1] | binding [2] | further results
1 | complex I subunit MTND4 (from UniProt P03911 1-459) | binds | – | –
2 | complex I subunit NDUFA6 (from UniProt Q9CQZ5 1-131) | binds | binds | –
3 | complex I subunit NDUFB6 (from UniProt Q3UIU2 1-128) | binds | binds | binding [3]: binds; binding [4]: binds
4 | complex I subunit NDUFB8 (from UniProt Q9D6J5 29-186) | binds | binds | binding [5]: binds; binding [3]: binds; binding [6]: binds; binding [4]: binds
5 | complex I subunit NDUFS3 (from UniProt Q9DCT2 36-263) | binds | binds | –
6 | complex I subunit NDUFS7 (from UniProt Q9DC70 36-224) | binds | binds | –
7 | complex I subunit NDUFC2 (protein, UniProt Q9CQ54 1-120) MMNGRPGHEPLKFLPDEARSLPPPKLNDPRLVYMGLLGYCTGLMDNMLRMRPVMRAGLHRQLLFVTSFVFAGYFYLKRQNYLYAVKDHDMFGYIKLHPEDFPEKEKKTYAEILEPFHPVR | binds | – | binding [7]: binds; binding [8]: binds
8 | complex I subunit MTND6 (protein, UniProt P03925 1-172) MNNYIFVLSSLFLVGCLGLALKPSPIYGGLGLIVSGFVGCLMVLGFGGSFLGLMVFLIYLGGMLVVFGYTTAMATEEYPETWGSNWLILGFLVLGVIMEVFLICVLNYYDEVGVINLDGLGDWLMYEVDDVGVMLEGGIGVAAMYSCATWMMVVAGWSLFAGIFIIIEITRD | binds | binds | –
